Among the data in patent US20110300071A1 (Washington University, priority 2010, published 2011) are conjugation yield values, retold here.

A short description of the data set: peptide synthesis. Particulars: conjugation step.

Consider “poly(ethylene glycol) CANF methacrylate (CANF-PEGMA)”, for which the conjugation yield is 41%.
